Test results as given in US20100184799A1, “OXADIAZOLE BETA CARBOLINE DERIVATIVES AS ANTIDIABETIC COMPOUNDS” (priority 2009, published 2010).
pEC50, pKi: −log10 of the molar value. Some results were stated once for a whole list of compounds, not compound by compound.

The chains behind the UniProt entries cited, without tags or fusion partners. Where a name states a change or a piece, a line headed by the entry shows the natural chain unless it says otherwise.
UniProt P31391: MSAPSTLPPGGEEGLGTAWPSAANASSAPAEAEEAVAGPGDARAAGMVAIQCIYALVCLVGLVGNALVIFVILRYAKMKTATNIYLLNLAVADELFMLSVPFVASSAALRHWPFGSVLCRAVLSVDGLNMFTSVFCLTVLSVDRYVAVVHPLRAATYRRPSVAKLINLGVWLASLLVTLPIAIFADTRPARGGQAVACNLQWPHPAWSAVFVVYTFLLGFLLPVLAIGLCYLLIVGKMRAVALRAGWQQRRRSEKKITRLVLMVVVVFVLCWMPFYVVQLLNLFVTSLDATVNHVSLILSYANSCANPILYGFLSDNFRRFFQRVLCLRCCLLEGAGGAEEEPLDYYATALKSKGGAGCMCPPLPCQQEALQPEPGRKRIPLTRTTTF
UniProt P32745: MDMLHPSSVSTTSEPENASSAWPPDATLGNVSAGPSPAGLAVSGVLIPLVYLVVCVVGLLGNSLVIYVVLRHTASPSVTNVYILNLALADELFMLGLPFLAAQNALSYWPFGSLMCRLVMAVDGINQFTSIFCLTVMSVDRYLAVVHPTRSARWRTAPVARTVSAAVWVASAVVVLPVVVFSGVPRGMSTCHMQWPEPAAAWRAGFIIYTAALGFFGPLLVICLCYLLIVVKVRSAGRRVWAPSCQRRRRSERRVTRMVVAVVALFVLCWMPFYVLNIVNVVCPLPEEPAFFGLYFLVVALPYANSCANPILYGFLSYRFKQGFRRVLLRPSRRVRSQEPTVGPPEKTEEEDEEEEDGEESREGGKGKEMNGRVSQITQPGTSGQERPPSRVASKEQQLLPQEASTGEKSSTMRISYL
UniProt P30872: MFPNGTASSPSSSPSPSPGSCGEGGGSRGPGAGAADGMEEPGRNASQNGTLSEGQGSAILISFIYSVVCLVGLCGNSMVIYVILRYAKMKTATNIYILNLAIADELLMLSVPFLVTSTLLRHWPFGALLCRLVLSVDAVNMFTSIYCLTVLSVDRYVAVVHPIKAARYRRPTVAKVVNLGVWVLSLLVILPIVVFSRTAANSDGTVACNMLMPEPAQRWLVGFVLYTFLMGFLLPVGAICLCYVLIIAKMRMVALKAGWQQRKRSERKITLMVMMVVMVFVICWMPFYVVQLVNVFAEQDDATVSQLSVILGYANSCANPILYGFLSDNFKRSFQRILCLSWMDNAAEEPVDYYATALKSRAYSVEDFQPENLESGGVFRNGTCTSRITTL
UniProt P30874: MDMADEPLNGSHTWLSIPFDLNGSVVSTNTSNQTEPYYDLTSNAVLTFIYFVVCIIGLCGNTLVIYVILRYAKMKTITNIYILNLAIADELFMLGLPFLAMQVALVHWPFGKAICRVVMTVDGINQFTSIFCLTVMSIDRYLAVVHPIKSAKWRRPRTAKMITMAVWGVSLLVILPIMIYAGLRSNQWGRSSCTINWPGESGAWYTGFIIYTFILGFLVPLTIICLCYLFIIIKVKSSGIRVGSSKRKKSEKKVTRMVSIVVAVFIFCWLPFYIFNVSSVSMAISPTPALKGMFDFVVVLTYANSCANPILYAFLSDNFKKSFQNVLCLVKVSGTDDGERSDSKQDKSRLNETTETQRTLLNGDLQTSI
UniProt P35346: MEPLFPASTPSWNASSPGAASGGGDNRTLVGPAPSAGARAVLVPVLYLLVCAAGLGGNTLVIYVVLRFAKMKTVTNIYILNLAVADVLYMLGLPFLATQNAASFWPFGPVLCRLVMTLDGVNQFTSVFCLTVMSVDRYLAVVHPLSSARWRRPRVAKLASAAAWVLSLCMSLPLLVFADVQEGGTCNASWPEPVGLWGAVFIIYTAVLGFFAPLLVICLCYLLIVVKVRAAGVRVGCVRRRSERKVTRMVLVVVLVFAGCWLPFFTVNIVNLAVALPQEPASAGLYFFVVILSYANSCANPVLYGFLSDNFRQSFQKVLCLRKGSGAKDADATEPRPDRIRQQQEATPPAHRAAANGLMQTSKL

Key:
[1] = target: T1, SSTR4 (Homo sapiens, UniProt P31391); assay: SSTR4 receptor-ligand binding assay, CHO-K1 cell membranes; conditions: read-out: Ki against SSTR4
T1 construct: expressed in transfected cells; membranes used

[2] = target: SSTR3 (Homo sapiens, UniProt P32745); assay: SSTR3 functional antagonist assay: cAMP production with FSK + SS-14 in SSTR3 stable CHO cells; format: cell-based, human or mouse; design: […]; conditions: […] FSK + 100 nM SS-14
Experimental: The effects of compounds that bind to human and murine SSTR3 with various affinities on the functional activity of the receptor were assessed by measuring cAMP production in the presence of Forskolin (FSK) along or FSK plus SS-14 in SSTR3 expressing CHO cells. FSK acts to induce cAMP production in these cells by activating adenylate cyclases, whereas SS-14 suppresses cAMP production in the SSTR3 stable cells by binding to SSTR3 and the subsequent inhibition of adenylate cyclases via an alpha subunit of GTP-binding protein (Gαi).
The amount of cAMP produced during the incubation was also quantified with the Lance cAMP assay. […] The % Inhibition of each compound was calculated using the following formula:
% Inhibition=[1−(unknown cAMP/FSK+SS-14 cAMP)]×100

[3] = target: T2, SSTR1 (Homo sapiens, UniProt P30872); assay: SSTR1 receptor-ligand binding assay, CHO-K1 cell membranes; conditions: read-out: Ki against SSTR1
T2 construct: expressed in transfected cells; membranes used

[4] = target: T3, SSTR2 (Homo sapiens, UniProt P30874); assay: SSTR2 receptor-ligand binding assay, CHO-K1 cell membranes; conditions: read-out: Ki against SSTR2
T3 construct: expressed in transfected cells; membranes used

[5] = target: T4, SSTR5 (Homo sapiens, UniProt P35346); assay: SSTR5 receptor-ligand binding assay, CHO-K1 cell membranes; conditions: read-out: Ki against SSTR5
T4 construct: expressed in transfected cells; membranes used

| Structure (SMILES) | pKi [1] | % Inhibition (maximum ability to block the action of SS-14) [2] | pEC50 [2] | pKi [3] | pKi [4] | pKi [5] |
| --- | --- | --- | --- | --- | --- | --- |
| Oc1nnc(C2(c3ccccc3)N[C@@H](c3nc(-c4ccc(F)cc4)c[nH]3)Cc3c2[nH]c2ccccc32)o1 (mixture of isomers) [Example 10] | < 7.00 | greater than 80% | > 5.60 | < 7.00 | < 7.00 | < 7.00 |
| N#Cc1ccc(C2(c3nnc(O)o3)N[C@@H](c3nc(-c4ccc(F)cc4)c[nH]3)Cc3c2[nH]c2ccccc32)cc1 (mixture of isomers) [Example 13] | < 7.00 | greater than 80% | > 5.60 | < 7.00 | < 7.00 | < 7.00 |
| CCn1cc(C2(c3nn(C)c(=O)o3)N[C@@H](c3nc(-c4ccc(F)cc4)c[nH]3)Cc3c2[nH]c2ccccc32)cn1 (mixture of isomers) [Example 36] | < 7.00 | greater than 80% | > 5.60 | < 7.00 | < 7.00 | < 7.00 |
| Cn1nc(C2(c3ccccc3)N[C@@H](c3nc(-c4ccc(F)cc4)c[nH]3)Cc3c2[nH]c2ccccc32)oc1=O (single isomer, unassigned) [Example 1] | < 7.00 | greater than 80% | > 5.60 | < 7.00 | < 7.00 | < 7.00 |
| Cn1nc(C2(c3ccccc3)N[C@@H](c3nc(-c4ccc(F)cc4)c[nH]3)Cc3c2[nH]c2ccccc32)oc1=O (single isomer, unassigned) [Example 2] | < 7.00 | greater than 80% | > 5.60 | < 7.00 | < 7.00 | < 7.00 |
| CCn1cc(C2(c3nnc(O)o3)N[C@@H](c3nc(-c4ccc(F)cn4)c[nH]3)Cc3c2[nH]c2ccccc32)cn1 (single isomer, unassigned) [Example 3] | < 7.00 |  |  | < 7.00 | < 7.00 | < 7.00 |
| Cc1nc(C2(c3nnc(O)o3)N[C@@H](c3nc(-c4ccc(F)cn4)c[nH]3)Cc3c2[nH]c2ccccc32)no1 (single isomer, unassigned) [Example 7] | < 7.00 | greater than 80% | > 5.60 | < 7.00 | < 7.00 | < 7.00 |
| CCn1nc(C2(c3noc(C)n3)N[C@@H](c3nc(-c4ccc(F)cn4)c[nH]3)Cc3c2[nH]c2ccccc32)oc1=O (single isomer, unassigned) [Example 8] | < 7.00 | greater than 80% | > 5.60 | < 7.00 | < 7.00 | < 7.00 |
| CCn1nc(C2(c3noc(C)n3)N[C@@H](c3nc(-c4ccc(F)cn4)c[nH]3)Cc3c2[nH]c2ccccc32)oc1=O (single isomer, unassigned) [Example 9] | < 7.00 | greater than 80% | > 5.60 | < 7.00 | < 7.00 | < 7.00 |
| Cn1nc(C2(c3ccccc3)NC(c3nc(-c4ccc(F)cn4)c[nH]3)Cc3c2[nH]c2ccccc32)oc1=O (single isomer, unassigned) [Example 11] | < 7.00 | greater than 80% | > 5.60 | < 7.00 | < 7.00 | < 7.00 |
| Cn1nc(C2(c3ccccc3)NC(c3nc(-c4ccc(F)cn4)c[nH]3)Cc3c2[nH]c2ccccc32)oc1=O (single isomer, unassigned) [Example 12] | < 7.00 | greater than 80% | > 5.60 | < 7.00 | < 7.00 | < 7.00 |
| Cn1nc(C2(c3ccc(C#N)cc3)NC(c3nc(-c4ccc(F)cc4)c[nH]3)Cc3c2[nH]c2ccccc32)oc1=O (single isomer, unassigned) [Example 14] | < 7.00 | greater than 80% | > 5.60 | < 7.00 | < 7.00 | < 7.00 |
| Cn1nc(C2(c3ccc(C#N)cc3)NC(c3nc(-c4ccc(F)cc4)c[nH]3)Cc3c2[nH]c2ccccc32)oc1=O (single isomer, unassigned) [Example 15] | < 7.00 | greater than 80% | > 5.60 | < 7.00 | < 7.00 | < 7.00 |
| Cn1cc(C2(c3nn(C)c(=O)o3)N[C@@H](c3nc(-c4ccc(F)cc4)c[nH]3)Cc3c2[nH]c2ccccc32)cn1 (single isomer, unassigned) [Example 23] | < 7.00 |  | > 5.60 | < 7.00 | < 7.00 | < 7.00 |
| CCOC(=O)Cn1nc(C2(c3cnn(CC)c3)N[C@@H](c3nc(-c4ccc(F)cn4)c[nH]3)Cc3c2[nH]c2ccccc32)oc1=O (single isomer, unassigned) [Example 34] | < 7.00 | greater than 80% | > 5.60 | < 7.00 | < 7.00 | < 7.00 |
| Cn1cc(C2(c3nnc(N)o3)N[C@@H](c3nc(-c4ccc(F)cn4)c[nH]3)Cc3c2[nH]c2ccccc32)cn1 (single isomer, unassigned) [Example 50] | < 7.00 |  |  | < 7.00 | < 7.00 | < 7.00 |
| Cn1cc(C2(c3nnc(N)o3)N[C@@H](c3nc(-c4ccc(F)cc4)c[nH]3)Cc3c2[nH]c2ccccc32)cn1 (single isomer, unassigned) [Example 52] | < 7.00 |  | > 5.60 | < 7.00 | < 7.00 | < 7.00 |
| CSc1nnc(C2(c3cnn(C)c3)N[C@@H](c3nc(-c4ccc(F)cc4)c[nH]3)Cc3c2[nH]c2ccccc32)o1 (stereo partly drawn) [Example 58] | < 7.00 | greater than 80% | > 5.60 | < 7.00 | < 7.00 | < 7.00 |
